In patent publication US20240109937A1, “BINDING PEPTIDES AND USES THEREOF” (The Johns Hopkins University, priority 2021, published 2024):
Results are given in words; binding and its absence hold for the method and conditions named. Some results given as binding are weak or reduced against the parent protein; the word gives no strength.

By UniProt entry, the sequences of proteins in these tests, tags left out. Where a name states a change or a piece, a line headed by the entry shows the natural chain unless it says otherwise. Residues count along the entry.
UniProt Q9Z0X1: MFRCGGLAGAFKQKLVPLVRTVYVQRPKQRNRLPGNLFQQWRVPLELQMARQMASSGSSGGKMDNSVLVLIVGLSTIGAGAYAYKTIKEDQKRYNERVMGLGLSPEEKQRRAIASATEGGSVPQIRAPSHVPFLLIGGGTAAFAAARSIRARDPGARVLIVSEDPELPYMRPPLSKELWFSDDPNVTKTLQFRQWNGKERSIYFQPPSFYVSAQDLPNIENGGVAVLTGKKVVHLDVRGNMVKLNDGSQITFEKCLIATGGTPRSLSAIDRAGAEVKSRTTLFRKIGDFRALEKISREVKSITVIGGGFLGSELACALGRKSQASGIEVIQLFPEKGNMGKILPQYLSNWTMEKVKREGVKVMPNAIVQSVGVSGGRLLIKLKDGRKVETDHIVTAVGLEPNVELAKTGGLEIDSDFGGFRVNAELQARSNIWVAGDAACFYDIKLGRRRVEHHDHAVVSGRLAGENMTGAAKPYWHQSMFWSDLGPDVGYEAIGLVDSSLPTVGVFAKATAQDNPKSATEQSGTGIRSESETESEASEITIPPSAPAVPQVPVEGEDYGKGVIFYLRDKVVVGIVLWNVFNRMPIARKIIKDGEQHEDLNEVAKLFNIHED
Mature apoptosis-inducing factor (mAIF, 62 kDa), endogenous mouse: residues 54-612 of Q9Z0X1
Truncated apoptosis-inducing factor (tAIF, 57 kDa), endogenous mouse: residues 103-612 of Q9Z0X1
UniProt P17742, residues 2-164: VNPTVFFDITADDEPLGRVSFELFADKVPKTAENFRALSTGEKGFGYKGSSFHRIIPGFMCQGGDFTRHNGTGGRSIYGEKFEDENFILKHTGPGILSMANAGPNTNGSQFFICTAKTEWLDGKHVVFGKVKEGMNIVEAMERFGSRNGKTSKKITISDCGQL

Experiments:
[1] = target: Truncated apoptosis-inducing factor (tAIF, 57 kDa), endogenous mouse (mouse) (UniProt Q9Z0X1); experiment: immunoblots of myocardial lysates on non-denaturing gels (co-migration, 'bound-PPIA')
[2] = target: Truncated apoptosis-inducing factor (tAIF, 57 kDa), endogenous mouse (mouse) (UniProt Q9Z0X1); experiment: immunoblots of myocardial lysates on non-denaturing gels (co-migration)
[3] = target: Truncated apoptosis-inducing factor (tAIF, 57 kDa), endogenous mouse (mouse) (UniProt Q9Z0X1); experiment: immunoblots of ISO/Ca2+-treated ES-CM lysates (co-migration)
[4] = target: Truncated apoptosis-inducing factor (tAIF, 57 kDa), endogenous mouse (mouse) (UniProt Q9Z0X1); experiment: immunoblots of ISO/Ca2+-treated ES-CM lysates on non-denaturing gels (co-migration)
[5] = target: Mature apoptosis-inducing factor (mAIF, 62 kDa), endogenous mouse (mouse) (UniProt Q9Z0X1); experiment: as above

binding [1]: binds
binding [2]: binds
binding [3]: binds
binding [4]: binds
binding [5]: binds
Substance: Cyclophilin-A (peptidyl-prolyl cis-trans isomerase, PPIA), endogenous in mouse myocardium and mouse ES-CMs (from UniProt P17742 2-164) (enzyme)
